Article PMC11756305
For at least one entry, the source does not settle the construct or the ends of the probe.

Test system: BcWRKY33A-GST
Experiment: EMSA
Details: Beyotime GS009 chemiluminescent EMSA kit, room temperature, 6% native gel, TGE buffer; salt and pH not stated; recombinant protein; protein details: GST (pGEX); label: biotin

| Sequence | binding result |
| --- | --- |
| GAAAGAAATAAAGTCAAAAGTTACAGTAGA (double strand) [pBcLRP1 W-box probe] | binds |
| GATATAATTCAAAATAGTCAAGGACCATGTCAATAT (double strand) [pBcCOW1 W-box probe] | binds |
